PubChem BioAssay AID1347423 (Functional Genomics Laboratory (NCATS/FGL), 2020)
Hit rate of the full screen: of about 52,000 sequences, about 210 (0.4%) were called active.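 Rule for the calls: active = gene whose silencing raises cell survival under the drug, median off-target-corrected z-score across its silencing RNAs 2 or more; inactive = the rest.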 This is one part of the list.

Experiment: Resistance to Poly (ADP-Ribose) Polymerase inhibitor: Gene Identification via Genome-wide siRNA Screen
Settings: mouse BRCA2 R2336H ES cells, olaparib, CellTiter-Glo viability; active compounds read high
Description: The role of Poly (ADP-Ribose) Polymerase (PARP) proteins in DNA repair has been elegantly utilized for the synthetic lethality-based treatment of BRCA-deficient tumors by PARP inhibitors. PARP inhibitors are now being used for treatment of BRCA-deficient breast and ovarian cancers. […] While several mechanisms of drug resistance have been identified, majority of these tumors develop drug resistance due to unknown causes. To identified novel regulators of chemo-resistance in BRCA2-mutated cells, we performed a genome wide siRNA library screen. We have found ES cells expressing a hypomorphic allele of BRCA2 to be hypersensitive to PAPP inhibitors (such as olaparib). We used ES cells expressing a mutant allele of BRCA2 that has a single amino acid substitution at position 2336 (arginine to histidine, R2336H). The screen was conducted using an Ambion (Thermo) Silencer Mouse Genome siRNA collection. The library targets 17,575 mouse genes with 3 siRNAs per gene. TET2 (E130014J05Rik) was identified as a top candidate.
Transfections were performed in 384 well plates (Corning 3707). Plates were coated with 0.1% gelatin in H2O overnight at ambient temperature. Gelatin solution was aspirated (BioTek EL406) and siRNAs were printed using a Bravo VPrep liquid handler integrated within a BioCel automation platform (Agilent). Cell viability was measured using CellTiter Glo (Promega). For transfections, […] of serum free media containing Lipofectamine RNAiMax […] was added to wells containing siRNA (0.8pmol). Lipid and siRNA were allowed to complex for 45 min at ambient temperature before addition of 1000 cells in DMEM, 30% FBS to yield final transfection mixtures containing 20 nM siRNA in DMEM, 15% FBS. PARPi (olaparib, AZD2281) was added 48 h post-transfection (500 nM) and viability (CellTiter Glo, Promega) was assayed 72 h later on a PerkinElmer Envision 2104 Multilabel plate reader. Ambion Silencer Select Negative Control #2 was incorporated on all screening plates (16 wells) and the median negative control value on each plate was used for normalization. An siRNA targeting Trp53 was used as a positive control. This control yielded a median protective effect of ~1.9 fold versus negative control throughout the screen. The median absolute deviation (MAD) based z-score was calculated for each siRNA. Genes were then ranked by taking the median value for all siRNAs tested against a given gene. Scores were also adjusted for seed-based off-target effects to help deprioritize likely false positives.

Sequence | z-score
GGACACUUGUCUUCACUUGTT against Fancc | inactive: -0.534
GGAGCCUCCAAGUUGUAAGTT against 1810023F06Rik | inactive: -0.539
GGAAAAAGAGGAUGAGUGCTT against 9230109N16 | inactive: 0.823
CCCUCAGCUACAUUCUCCUTT against Olfr1313 | inactive: 0.106
GGAUACAAUACACGGACGATT against Syt14 | inactive: -0.943
GGACAUUCCUGAACAUAAUTT against Pcdha3 | inactive: 0.466
CCCUGAAGUUUAUGCAACATT against Ttyh2 | inactive: -0.188
GCCUAAUCAUUCCCAGCAUTT against Oog2 | inactive: -0.349
GGUGAGAGGAAGGAAGAGATT against Pcsk7 | inactive: -2.23
GCUGAUCCAACUGGAAUCUTT against D030051D21 | inactive: 2.25
GGAGGUAAAUGAAAAAUCUTT against Nol5a | inactive: -0.00217
GGAUAUGCACUGUUUUCAATT against 2310041H06Rik | inactive: -0.288
GGACUUUUAUCACGAAGAGTT against E230016K23Rik | inactive: -1.19
GCACAACUUAUGACUGAAATT against 2610318K02Rik | inactive: -1.21
CCAACAGUACCUCAUUGCUTT against 5730536A07Rik | inactive: -2.42
CACUUAUGACCACGCUGAUTT against Olfr809 | inactive: 0.511
CCCACGAAGCUAAGUGGAATT against Gm711 | inactive: 1.21
GGGUACUGAGGCACUAAAGTT against 2410129H14Rik | inactive: 2.91
GGUGUGGUAUCUCUUGUAGTT against Tfdp1 | inactive: -1.72
GGCAUAACUGGCUUUGAAGTT against 1200009C21Rik | inactive: -0.402
GGAGUACUUUGGAAUAGCATT against Frmd4a | inactive: -0.351
GCCAGUGAGGCUACUUUCATT against Myo18a | inactive: -0.423

Sequence | z-score
GCACGGCGAAAAAAUCUUCTT against 3110023G01Rik | inactive: 0.469
GCAAAAGAGGGAAUAAUUCTT against Ssb | inactive: 1.47
GCAGCUAGCGAUCUUUGGUTT against Thpo | inactive: 0.00639
GGAUAUUAGUGUGGAGACUTT against Spnb2 | inactive: 0.595
GGAGGAUGAGAAAGAAGAGTT against Gja8 | inactive: 0.759
CGUGACUCUGCUUUAACUCTT against Col27a1 | inactive: 0.7
GUUUCCAUAUCCUUUAAGUTT against Gp49a | inactive: 0.954
GGAUACAUUGAGAAAGACUTT against A130072J07 | inactive: -0.41
GCACCUUUGCUUCAGGUAGTT against Ttf2 | inactive: 1.27
GCAUAUUCUUGCCUUUCUCTT against V1ri10 | inactive: 0.614
CCCGCUAUUACGUUUUUCUTT against 2810484M10Rik | inactive: -0.417
GCCACUCACUAUGCUACUCTT against 0610039C21Rik | inactive: -1.23
GGAUGUGCAUCACUUCAACTT against Sgsh | inactive: -0.653
GGCUAAUAAGAAGUGAAGUTT against Kifc1 | inactive: -1.66
GGUGUUAGAUUCUUUGUAATT against Cst6 | inactive: 1.13
CCAGAGCUACCAAAGUCUATT against Ka35 | inactive: -1.65
GGAGUUGUCUUCAAGAAAUTT against Rassf4 | inactive: -1.12
GGAAACCUACCAAGAAACGTT against AI429612 | inactive: -1.36
CACAGAACAUCAUCUCCCATT against Olfr887 | inactive: -0.702
AAACUAGGGUCGAUUUCACTT against Hmgn3 | inactive: -0.0683
CGUGGAAAUGUCUUAAAUCTT against Folh1 | inactive: -0.323
GCAGGAGUAUUGCCAAGGATT against Csf1 | inactive: -1.08

Reprinted at random: 3 records from the list.
Sequence | z-score
GUUUCCAUAUCCUUUAAGUTT against Gp49a | inactive: 0.954
GCACGGCGAAAAAAUCUUCTT against 3110023G01Rik | inactive: 0.469
GGUGUUAGAUUCUUUGUAATT against Cst6 | inactive: 1.13

(listing goes on)

Sequence | z-score
GGAGAUGAAUCACUAACCATT against Fgf5 | inactive: -1.04
GCCUAAGGGAGACUCUUUGTT against Ngep | inactive: -1.38
GGAAUUCUACCGUUAUAUUTT against Trap1 | inactive: -0.925
GGGAUCAGAGAUUUAGCUATT against V1ri4 | inactive: -0.806
GGAUAUGCCUCCCUUGAUGTT against Gstt3 | inactive: -0.88
GGUUUUAUGUAUGAAACUCTT against 9030408N13Rik | inactive: -0.322
CCGAUUGAUAAAGUCACAUTT against Zfp406 | inactive: -0.269
GGAACCUAGAGAAAAAGAATT against 0610009A07Rik | inactive: -1.33
GGUCCAGAAAAUGUUUAUATT against Slc35a4 | inactive: 0.094
GGAAGCCACGGUCAUGUGUTT against Trim9 | inactive: 0.202
GCCAAAACAUUUCAGAGCCTT against Hemk1 | inactive: -0.0685
CCAAGAUUCUCCUGAAUUATT against Plod2 | inactive: 0.771
GGCUUUGAUGCAACUUCUGTT against Slc18a1 | inactive: 2.38
GGACACUUUACAGUGAUUGTT against 9530098N22Rik | inactive: 0.616
CCUCCAAUCAGAAAGGUCGTT against 1300018I05Rik | inactive: 0.606
CCUAAAAGUGCCUUACUAATT against E330017A01Rik | inactive: 0.714
GGCAAGGUAGAGAUCAUCATT against Ggtla1 | inactive: 0.479
GCUGAUCAGCAUUAUUCACTT against Mbc2 | inactive: -0.185
GCUGCUGUGGUUCUAGUUGTT against 1110033F04Rik | inactive: 1.68
UCUGACAUUGACUCUAGCCTT against 7420402K12Rik | inactive: -0.419
GGAUCUGCUUGCAUUUGCATT against Map3k8 | inactive: 0.348
GGAUGUUGCGUCACCUACGTT against Zfp423 | inactive: -2.22
